Results taken from the supplement of paper PMC12764529.
± gives the half width of the 95% confidence interval. For many entries, trypsin and chymotrypsin gave values far apart.

Columns and labels:
[1] = folding stability dG unfold from chymotrypsin proteolysis; higher = more stable
Protocol: (§1)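 Folding stability of de novo designed mini-proteins (<80 aa, no Cys; designed by TrROS, TrMRF, ProteinMPNN and the joint model) was measured by cDNA display proteolysis with trypsin and chymotrypsin. Each protease was used at 11 concentrations in a threefold dilution series plus a no-protease condition. K50 was inferred by Bayesian fitting of sequencing counts, and dG unfold was derived against a sequence-predicted unfolded-state K50 (Tsuboyama et al. method). Sequences shown include variable-length N-terminal GS-type padding (SAGGSAGG...) inside a display construct carrying a PA tag. Rows were kept only if the AF2 dimer inter-PAE was >15, to exclude likely homo-oligomers.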

[2] = folding stability dG unfold (combined trypsin and chymotrypsin); higher = more stable
Protocol: as §1

Sequence | folding stability dG unfold [1] [kcal/mol] | folding stability dG unfold [2] [kcal/mol]
SAGGSNIFIMIKFRPPDKKRTWTIPIRVRHPNGKPKPIPAEELKDILEELPGYPVKNVDVMPPDDISAGGSA [r2_192_TrROS] | 3.25 ± 0.23 | 3.8 ± 0.56
SAGGSAGGSAGGSLIKRPLKLTVKLTFTDPENPSTPVETTERLDLYVLLEVPPVPPEHPSAGGSAGGSAGGS [r4_231_TrMRF] | 2.807 ± 0.027 | 2.04 ± 0.11
SAGGSAGGSDEVTYDPVAGTFTVRLRLPGGERTFRVPSLADLRAWLEREGLPWEDLPIERVEPSAGGSAGGS [r12_834_TrMRF] | 2.35 ± 0.1 | 1.73 ± 0.12
SAGGSAGGSAGGSVEERVEEEVERVRAAHPVEVLPVEVEVEVGDEPVRAEVPVVVPGPGSAGGSAGGSAGGS [r10_1204_JUSTAS] | 1.39 ± 0.063 | 0.793 ± 0.097
SAGGSAGGSAGGSKVLVIDLPDGTKIAFVPETGKVFIFPKGGEKKEFPNLTLADLLKARSAGGSAGGSAGGS [r10_569_TrMRF] | 1.95 ± 0.12 | 1.12 ± 0.23
SAGGSAGGSAGALPPGAKVRVVRLRDTAPEVREFTIPDEVPSVGAVLDAFPDVVAVELEGSAGGSAGGSAGG [r11_157_TrMRF] | 1.62 ± 0.078 | 1.01 ± 0.13
SAGGSAGGSSATVGAAAPGTVVLTLHGDAPVTITVPPGRLEELARRLRELGADAEVDFAPALGSAGGSAGGS [r20_124_TrMRF] | 1.84 ± 0.029 | 1.33 ± 0.06
SAGSYLVEVTLTFPDGTVRRLTVRTTSADPEEARAAAEAAVAAEIAAAGVPVASVAVRLEPVPPDRLESAGG [r19_335_JUSTAS] | 3.217 ± 0.011 | 2.87 ± 0.039
SAGGSAGGSAGGAIVVNPAGNTARVVLPNGEVKTLPAEKAAEAQKELGLPDVPIFVNPGASAGGSAGGSAGG [r7_235_TrMRF] | 1.14 ± 0.067 | 0.68 ± 0.15
SAGGSAGGSAGGGELAKEAAEKARELGLGPDTEIEIFDPETGELVRVRILPETGGFEVEPSAGGSAGGSAGG [r7_301_TrMRF] | 1.64 ± 0.067 | 1.17 ± 0.094
SAGGSAGGSAGGSPETLVERTITVPTTNATGTVTEVVTVPVTARTEEEAEALAAELAAASAGGSAGGSAGGS [r10_57_JUSTAS] | 1.11 ± 0.02 | 0.558 ± 0.072
SAGGSAGGSAGGAGPDDTVTIVRVNATPRLDANGNAVDPTADSVEVITVPADNIDDLLNNSAGGSAGGSAGG [r7_439_TrMRF] | 1.04 ± 0.042 | 0.462 ± 0.085
SGRVLEVRRRLAFFDPETGRLLGEVEVVVRVPPSATPEEVPRIARERELEAAERLLRPAPPRRLENGELLSA [r9_454_TrMRF] | 1.56 ± 0.12 | 1.1 ± 0.16
SAALSLSPEEVAAAAAALAARGDVTVERREEAVTLEPPNGGSLPLGRVVLDVTDPAAGRPLAAEVAALASAG [r14_628_JUSTAS] | 1.34 ± 0.11 | 0.803 ± 0.085
SAGGSAGGAVSPEMQALAEAVRAALRAAFPDLPLEIRVVEITRFPDGSVTITVRVGDEELEVPVSAGGSAGG [r6_495_JUSTAS] | 2.487 ± 0.017 | 2.15 ± 0.042
SAGGSAGGSAGGDEPEDVPVLDIEVDLPPELRNNPELAGEAAVERAKPLEEEGLLGTVASAGGSAGGSAGGS [r10_723_TrMRF] | 1.09 ± 0.035 | 0.59 ± 0.11
SAGGSAGGSAGGSAPPPPPLTLEVSVLLPDGTVARARVTLNEDGELTVEVELVPLPEGLSAGGSAGGSAGGS [r4_248_TrROS_Hall] | 1.04 ± 0.07 | 0.638 ± 0.22
GTMQKNGVPIKPIKPIIIEYPVSPNLPNGLPLSPEEVEKLLEEIAEKIKKEKPVKKVTFTKDGDKYILKVES [r1_369_JUSTAS] | 1.23 ± 0.18 | 0.533 ± 0.22
SAGGSAGGSAGGMLLVFEDGKVYPFEDLEDVEEAVKTIRTPLGRPDAKIEIYDLPPELIPSAGGSAGGSAGG [r7_839_TrMRF] | 1.23 ± 0.062 | 0.718 ± 0.14
SAGGGSKTITTTLPETGLTVTTTLEVPSADISIGDLVVTETPLPDATRRTTVTTSLGVTNNATATPVASAGG [r13_515_JUSTAS] | 1.05 ± 0.021 | 0.509 ± 0.062
SAGGSAGGSAGGSAPDDPSAPPVLVFTVRYRLDADDAVVEFTARVAVLPDGVAVSFDPTSAGGSAGGSAGGS [r4_145_TrMRF] | 3.94 ± 0.045 | 3.48 ± 0.059
SAGGSAGGGAIEEALRELREQAPPGQTLRVRVFNKETGEETEIEVPVEDLEKLEGVERIEVERESAGGSAGG [r6_401_TrROS_Hall] | 1.23 ± 0.27 | 0.788 ± 0.22
SAGGSAGGSAAPPGVEVEVRVARLPGPGYLAVALLRVEGRPFLAVALYDAPPGRPLAVAVFASAGGSAGGSA [r18_459_TrMRF] | 4.25 ± 0.059 | 3.75 ± 0.23

Looked up one by one from the entries so far:
Sequence | folding stability dG unfold [1] [kcal/mol] | folding stability dG unfold [2] [kcal/mol]
SAGGSAGGSAGGSPETLVERTITVPTTNATGTVTEVVTVPVTARTEEEAEALAAELAAASAGGSAGGSAGGS [r10_57_JUSTAS] | 1.11 ± 0.02 | 0.558 ± 0.072
SAGGSAGGSAGGAGPDDTVTIVRVNATPRLDANGNAVDPTADSVEVITVPADNIDDLLNNSAGGSAGGSAGG [r7_439_TrMRF] | 1.04 ± 0.042 | 0.462 ± 0.085
